± gives the standard deviation of the averaged measurements. The reference is the same well before dosing, and untreated signal decays as well.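 The tumor cells are basal-like or mesenchymal-like triple-negative breast cancer lines cultured without fibroblasts. Reduced red signal indicates lost mitochondrial integrity, serving as a proxy for apoptotic death.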
Experiments:
Assay in all cases: relative JC-1 red fluorescence (viability) vs pre-drug, monoculture (fraction); higher = more viable cancer cells
Conditions in all cases: coculture fibroblast: none (monoculture)
[1] = tested on: BT20
Experimental: (§1)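 JC-1 labelled TNBC cells grown in monoculture (density kept equal with unlabelled cancer cells) in 384-well plates in FluoroBrite medium, treated with one of 42 anticancer drugs at 0.1, 1, 10 or 100 uM. JC-1 red fluorescence (mitochondrial integrity, surrogate of apoptotic death) was read by plate reader every 8 h for 72 h. Values are normalised to each well's pre-drug value, with background from alamethicin. The stock of one drug was tenfold lower, so its dose labels may be too high. Monoculture values are repeated alongside each fibroblast plate and are averaged here.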

[2] = tested on: MDAMB231
Experimental: as §1

[3] = tested on: MDAMB468
Experimental: as §1

[4] = tested on: MDAMB436
Experimental: as §1

CC/C(=C(\c1ccccc1)c1ccc(OCCN(C)C)cc1)c1ccccc1 [Tamoxifen]
relative JC-1 red fluorescence
Conditions | 8 h | 16 h | 24 h | 32 h | 40 h | 48 h | 56 h | 64 h | 72 h
[1], 0.1 µM | 0.955 ± 0.021 | 0.878 ± 0.011 | 0.7958 ± 0.0034 | 0.7338 ± 0.0025 | 0.6958 ± 0.0053 | 0.6779 ± 0.0027 | 0.661 ± 0.0025 | 0.64073 ± 0.00046 | 0.6331 ± 0.0032
[1], 1 µM | 0.82 ± 0.11 | 0.901 ± 0.028 | 0.773 ± 0.013 | 0.795 ± 0.095 | 0.754 ± 0.1 | 0.751 ± 0.12 | 0.763 ± 0.16 | 0.73 ± 0.15 | 0.628 ± 0.068
[1], 10 µM | 0.9521 ± 0.0085 | 0.9573 ± 0.0073 | 0.9139 ± 0.0074 | 0.923 ± 0.016 | 0.926 ± 0.016 | 0.938 ± 0.011 | 0.941 ± 0.02 | 0.934 ± 0.022 | 0.929 ± 0.036
[2], 0.1 µM | 0.73 ± 0.0091 | 0.688 ± 0.036 | 0.607 ± 0.045 | 0.592 ± 0.019 | 0.533 ± 0.0085 | 0.5199 ± 0.0016 | 0.483 ± 0.011 | 0.49 ± 0.022 | 0.487 ± 0.03
[2], 1 µM | 0.751 ± 0.02 | 0.779 ± 0.018 | 0.659 ± 0.07 | 0.657 ± 0.075 | 0.608 ± 0.091 | 0.576 ± 0.1 | 0.534 ± 0.1 | 0.535 ± 0.12 | 0.526 ± 0.12
[2], 10 µM | 0.773 ± 0.033 | 0.853 ± 0.043 | 0.697 ± 0.073 | 0.847 ± 0.043 | 0.837 ± 0.043 | 0.821 ± 0.045 | 0.813 ± 0.048 | 0.805 ± 0.06 | 0.774 ± 0.066
[3], 0.1 µM | 0.894 ± 0.011 | 0.842 ± 0.017 | 0.7411 ± 0.0031 | 0.6679 ± 0.0009 | 0.6142 ± 0.0024 | 0.593 ± 0.01 | 0.5587 ± 0.0054 | 0.528 ± 0.009 | 0.517 ± 0.015
[3], 1 µM | 0.922 ± 0.0031 | 0.8812 ± 0.0015 | 0.851 ± 0.0092 | 0.801 ± 0.011 | 0.7809 ± 0.0012 | 0.7633 ± 0.0036 | 0.7297 ± 0.0043 | 0.6946 ± 0.0041 | 0.6889 ± 0.0034
[3], 10 µM | 0.901 ± 0.069 | 0.923 ± 0.011 | 0.771 ± 0.073 | 0.775 ± 0.074 | 0.767 ± 0.046 | 0.888 ± 0.095 | 0.854 ± 0.01 | 0.792 ± 0.13 | 0.616 ± 0.15
[4], 0.1 µM | 0.8534 ± 0.0041 | 0.783 ± 0.019 | 0.791 ± 0.028 | 0.744 ± 0.032 | 0.76 ± 0.037 | 0.752 ± 0.038 | 0.753 ± 0.044 | 0.757 ± 0.049 | 0.768 ± 0.06
[4], 1 µM | 0.876 ± 0.014 | 0.7669 ± 0.0011 | 0.7817 ± 0.0064 | 0.7353 ± 0.0022 | 0.708 ± 0.013 | 0.692 ± 0.011 | 0.674 ± 0.011 | 0.662 ± 0.019 | 0.653 ± 0.016
[4], 10 µM | 0.8979 ± 0.0049 | 0.865 ± 0.011 | 0.8552 ± 0.0026 | 0.7825 ± 0.0027 | 0.7667 ± 0.0019 | 0.7259 ± 0.0033 | 0.6777 ± 0.0033 | 0.6436 ± 0.0025 | 0.613 ± 0.0071

CC[C@]1(O)C[C@H]2CN(CCc3c([nH]c4ccccc34)[C@@](C(=O)OC)(c3cc4c(cc3OC)N(C=O)[C@H]3[C@@](O)(C(=O)OC)[C@H](OC(C)=O)[C@]5(CC)C=CCN6CC[C@]43[C@@H]65)C2)C1 [Vincristine]
relative JC-1 red fluorescence
Conditions | 8 h | 16 h | 24 h | 32 h | 40 h | 48 h | 56 h | 64 h | 72 h
[1], 0.1 µM | 0.953 ± 0.011 | 0.8859 ± 0.0074 | 0.88303 ± 0.00037 | 0.8135 ± 0.0061 | 0.7869 ± 0.0036 | 0.7832 ± 0.0028 | 0.7652 ± 0.0029 | 0.768 ± 0.0095 | 0.7643 ± 0.0059
[1], 1 µM | 0.9248 ± 0.0028 | 0.866 ± 0.019 | 0.77 ± 0.028 | 0.706 ± 0.023 | 0.654 ± 0.0092 | 0.632 ± 0.011 | 0.5852 ± 0.0043 | 0.5461 ± 0.0047 | 0.523 ± 0.0091
[1], 10 µM | 0.964 ± 0.0054 | 0.8579 ± 0.0014 | 0.8241 ± 0.0019 | 0.753 ± 0.0056 | 0.7032 ± 0.0068 | 0.665 ± 0.01 | 0.62 ± 0.021 | 0.596 ± 0.026 | 0.572 ± 0.023
[1], 100 µM | 0.9646 ± 0.0061 | 0.948 ± 0.021 | 0.91 ± 0.014 | 0.86 ± 0.023 | 0.832 ± 0.018 | 0.81 ± 0.011 | 0.783 ± 0.009 | 0.766 ± 0.0053 | 0.7498 ± 0.0017
[2], 0.1 µM | 0.759 ± 0.025 | 0.7357 ± 0.0039 | 0.844 ± 0.066 | 0.74 ± 0.03 | 0.719 ± 0.036 | 0.74 ± 0.056 | 0.739 ± 0.057 | 0.792 ± 0.063 | 0.813 ± 0.067
[2], 1 µM | 0.788 ± 0.022 | 0.772 ± 0.024 | 0.643 ± 0.01 | 0.6817 ± 0.0053 | 0.6453 ± 0.0046 | 0.6317 ± 0.0063 | 0.6109 ± 0.0041 | 0.623 ± 0.009 | 0.6228 ± 0.0039
[2], 10 µM | 0.842 ± 0.025 | 0.76 ± 0.013 | 0.889 ± 0.077 | 0.7856 ± 0.0076 | 0.764 ± 0.011 | 0.7748 ± 0.0037 | 0.7725 ± 0.0026 | 0.814 ± 0.025 | 0.815 ± 0.032
[2], 100 µM | 0.7864 ± 0.0078 | 0.855 ± 0.015 | 0.67 ± 0.013 | 0.798 ± 0.024 | 0.776 ± 0.027 | 0.75 ± 0.034 | 0.706 ± 0.028 | 0.689 ± 0.018 | 0.674 ± 0.0089
[3], 0.1 µM | 0.8201 ± 0.0016 | 0.8034 ± 0.0034 | 0.814 ± 0.011 | 0.7936 ± 0.0072 | 0.7677 ± 0.0062 | 0.7783 ± 0.0056 | 0.7757 ± 0.002 | 0.7695 ± 0.0049 | 0.7653 ± 0.0024
[3], 1 µM | 0.91426 ± 0.00059 | 0.871 ± 0.012 | 0.849 ± 0.011 | 0.792 ± 0.0084 | 0.77 ± 0.013 | 0.754 ± 0.026 | 0.729 ± 0.027 | 0.702 ± 0.036 | 0.692 ± 0.048
[3], 10 µM | 0.9009 ± 0.0033 | 0.882 ± 0.011 | 0.887 ± 0.025 | 0.826 ± 0.032 | 0.794 ± 0.034 | 0.782 ± 0.041 | 0.752 ± 0.041 | 0.727 ± 0.048 | 0.71 ± 0.059
[3], 100 µM | 0.933 ± 0.021 | 0.901 ± 0.03 | 0.913 ± 0.03 | 0.89 ± 0.029 | 0.884 ± 0.045 | 0.887 ± 0.046 | 0.856 ± 0.043 | 0.825 ± 0.018 | 0.816 ± 0.0038
[4], 0.1 µM | 0.886 ± 0.025 | 0.884 ± 0.015 | 0.966 ± 0.034 | 0.896 ± 0.043 | 0.847 ± 0.14 | 0.738 ± 0.025 | 0.848 ± 0.022 | 0.748 ± 0.053 | 0.803 ± 0.1
[4], 1 µM | 0.86199 ± 0.00012 | 0.787 ± 0.027 | 0.757 ± 0.0093 | 0.676 ± 0.0095 | 0.649 ± 0.027 | 0.625 ± 0.041 | 0.603 ± 0.05 | 0.593 ± 0.061 | 0.585 ± 0.065
[4], 10 µM | 0.923 ± 0.023 | 0.819 ± 0.029 | 0.88 ± 0.013 | 0.839 ± 0.022 | 0.861 ± 0.024 | 0.868 ± 0.013 | 0.882 ± 0.008 | 0.883 ± 0.015 | 0.8926 ± 0.0068
[4], 100 µM | 0.908 ± 0.012 | 0.88959 ± 0.00029 | 0.9047 ± 0.0022 | 0.8746 ± 0.0067 | 0.8812 ± 0.0047 | 0.874 ± 0.018 | 0.862 ± 0.027 | 0.845 ± 0.035 | 0.824 ± 0.033

From the supplement of paper PMC6078165
